Test results: article PMC11941830
Results are given in words; binding and its absence hold for the method and conditions named. For some assays here: In cells and extracts the contact can be indirect. Some binding calls cover weakened binding; strength is not graded here. Where a sequence is shown, tags or fusion partners need not be part of it.

Sequences of proteins named here, by UniProt entry; tags and fusion partners are left off. Residues count along the entry.
UniProt P02787, residues 20-698: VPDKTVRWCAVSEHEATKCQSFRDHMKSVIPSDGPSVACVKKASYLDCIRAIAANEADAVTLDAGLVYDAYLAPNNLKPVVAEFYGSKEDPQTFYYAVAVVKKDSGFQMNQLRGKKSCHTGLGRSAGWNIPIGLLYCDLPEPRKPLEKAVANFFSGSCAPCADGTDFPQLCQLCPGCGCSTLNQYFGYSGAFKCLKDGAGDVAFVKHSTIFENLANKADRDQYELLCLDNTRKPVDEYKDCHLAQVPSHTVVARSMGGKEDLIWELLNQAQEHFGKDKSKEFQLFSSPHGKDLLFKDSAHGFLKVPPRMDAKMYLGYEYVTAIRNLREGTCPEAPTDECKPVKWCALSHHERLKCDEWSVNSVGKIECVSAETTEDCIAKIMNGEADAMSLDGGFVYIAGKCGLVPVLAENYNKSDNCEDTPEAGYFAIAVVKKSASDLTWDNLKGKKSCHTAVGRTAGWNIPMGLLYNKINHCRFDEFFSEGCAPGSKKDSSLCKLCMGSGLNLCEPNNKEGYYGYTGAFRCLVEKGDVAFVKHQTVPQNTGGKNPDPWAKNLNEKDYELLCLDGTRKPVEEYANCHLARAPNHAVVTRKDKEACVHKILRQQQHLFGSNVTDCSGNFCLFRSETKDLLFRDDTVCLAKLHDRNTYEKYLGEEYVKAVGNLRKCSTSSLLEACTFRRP

Legend:
[1] = molecular target: T1, Full-length human hephaestin, wild type, with a C-terminal FLAG-tag (human) (UniProt Q9BQS7); experiment: co-IP; HEK293T expressing full-length Heph incubated for 30 min with 0.25 µM apo-Tfn or holo-Tfn in serum-free medium; DSP cross-linking before lysis; DYKDDDDK Fab-Trap immunoprecipitation; anti-Tfn blot; only the binder purified
T1 sequence: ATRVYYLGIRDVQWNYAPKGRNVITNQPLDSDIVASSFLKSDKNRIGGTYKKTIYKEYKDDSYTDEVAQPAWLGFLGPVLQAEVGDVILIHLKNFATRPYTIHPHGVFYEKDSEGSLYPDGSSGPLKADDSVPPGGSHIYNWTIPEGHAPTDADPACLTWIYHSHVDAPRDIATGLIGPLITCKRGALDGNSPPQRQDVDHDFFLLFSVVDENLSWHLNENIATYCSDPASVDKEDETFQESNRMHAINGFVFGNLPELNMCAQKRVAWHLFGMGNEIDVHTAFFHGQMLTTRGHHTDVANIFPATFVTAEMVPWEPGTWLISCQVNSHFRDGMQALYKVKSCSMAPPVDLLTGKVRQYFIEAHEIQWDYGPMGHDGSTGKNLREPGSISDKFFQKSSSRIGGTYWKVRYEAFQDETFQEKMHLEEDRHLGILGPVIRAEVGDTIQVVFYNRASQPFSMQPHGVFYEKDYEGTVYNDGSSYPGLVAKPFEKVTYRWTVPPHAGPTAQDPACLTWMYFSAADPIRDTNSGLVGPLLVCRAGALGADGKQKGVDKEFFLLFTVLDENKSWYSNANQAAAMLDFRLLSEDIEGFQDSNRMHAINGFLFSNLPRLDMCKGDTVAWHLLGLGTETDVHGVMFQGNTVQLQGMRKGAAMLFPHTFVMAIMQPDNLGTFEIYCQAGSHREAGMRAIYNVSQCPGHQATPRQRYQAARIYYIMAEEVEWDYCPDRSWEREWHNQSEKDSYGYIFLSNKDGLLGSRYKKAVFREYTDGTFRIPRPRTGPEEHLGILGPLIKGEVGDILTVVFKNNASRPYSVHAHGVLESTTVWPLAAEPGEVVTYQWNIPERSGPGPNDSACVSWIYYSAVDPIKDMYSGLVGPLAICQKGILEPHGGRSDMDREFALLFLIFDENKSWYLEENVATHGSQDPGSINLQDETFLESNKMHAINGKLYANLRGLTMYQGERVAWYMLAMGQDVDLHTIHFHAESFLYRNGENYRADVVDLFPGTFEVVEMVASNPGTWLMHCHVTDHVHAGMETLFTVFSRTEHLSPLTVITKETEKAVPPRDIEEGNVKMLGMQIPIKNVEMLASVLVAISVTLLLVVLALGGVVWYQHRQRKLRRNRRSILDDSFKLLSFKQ

[2] = molecular target: T2, FLAG-tagged secreted extracellular domain of HephD568H (residues 1-1107) (human) (UniProt Q9BQS7); experiment: pull-down; FLAG-tagged sec-Heph purified from HEK293T culture medium on FLAG-trap resin; equal amounts of each affinity resin incubated with apo-Tfn or holo-Tfn; pulled-down Tfn quantified by Western blot; both purified
T2 sequence: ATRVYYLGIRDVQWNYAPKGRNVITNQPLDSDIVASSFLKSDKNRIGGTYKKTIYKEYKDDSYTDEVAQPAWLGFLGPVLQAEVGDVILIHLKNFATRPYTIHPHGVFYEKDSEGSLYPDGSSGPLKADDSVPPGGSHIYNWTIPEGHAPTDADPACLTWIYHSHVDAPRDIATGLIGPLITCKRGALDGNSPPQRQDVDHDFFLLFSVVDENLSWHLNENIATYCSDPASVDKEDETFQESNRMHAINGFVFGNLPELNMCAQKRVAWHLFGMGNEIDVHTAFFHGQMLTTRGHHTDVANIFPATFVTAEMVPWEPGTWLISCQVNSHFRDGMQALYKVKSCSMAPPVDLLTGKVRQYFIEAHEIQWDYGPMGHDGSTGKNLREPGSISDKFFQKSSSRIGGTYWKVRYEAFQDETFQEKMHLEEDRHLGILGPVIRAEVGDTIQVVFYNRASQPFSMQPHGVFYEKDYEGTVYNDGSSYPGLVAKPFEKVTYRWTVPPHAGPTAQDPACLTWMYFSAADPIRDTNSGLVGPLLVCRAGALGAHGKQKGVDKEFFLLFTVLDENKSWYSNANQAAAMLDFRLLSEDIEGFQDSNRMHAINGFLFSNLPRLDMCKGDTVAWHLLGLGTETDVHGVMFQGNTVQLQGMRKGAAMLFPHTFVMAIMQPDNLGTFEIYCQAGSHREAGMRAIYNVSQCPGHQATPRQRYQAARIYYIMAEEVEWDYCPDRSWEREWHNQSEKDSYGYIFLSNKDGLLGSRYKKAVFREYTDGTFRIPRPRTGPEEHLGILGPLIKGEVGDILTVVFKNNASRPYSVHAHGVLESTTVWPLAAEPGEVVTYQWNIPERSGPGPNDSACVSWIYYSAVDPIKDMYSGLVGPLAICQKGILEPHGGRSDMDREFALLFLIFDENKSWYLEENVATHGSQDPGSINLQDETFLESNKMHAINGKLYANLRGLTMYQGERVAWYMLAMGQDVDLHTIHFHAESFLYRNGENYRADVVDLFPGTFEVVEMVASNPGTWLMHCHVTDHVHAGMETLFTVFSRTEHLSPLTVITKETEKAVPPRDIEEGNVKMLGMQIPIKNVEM

Which binding [1] does the source give for “Apo-transferrin (iron-depleted transferrin) (from UniProt P02787 20-698)” here?
The binding was “binds”.

What about the binding [2] of the same substance?
The binding was “binds”.
